From publication PMC5240526

Tests used:
Experiment in all cases: CE-LIFP
[1] = molecular target: RecA wild type (Escherichia coli) (UniProt P0A7G6); details: 0.1 mM ATPgS, no Mg2+, 3.0 uM RecA, saturated filament; 20 mM Tris-HCl pH 7.4, 10 mM Mg2+, 10 nM oligo, 0-3.0 uM RecA, 37 C 10 min; CE in 25 mM Tris, 192 mM glycine, 0.5 mM Ca2+, pH 8.3, room temperature; recombinant protein; label: 5'-TMR; single-stranded DNA
[2] = molecular target: RecA P67K P68K (Escherichia coli) (UniProt P0A7G6); details: physiological ATP, moderately assembled and saturated filaments; 20 mM Tris-HCl pH 7.4, 10 mM Mg2+, 10 nM oligo, 0-3.0 uM RecA, 37 C 10 min; CE in 25 mM Tris, 192 mM glycine, 0.5 mM Ca2+, pH 8.3, room temperature; recombinant protein; label: 5'-TMR; single-stranded DNA
[3] = molecular target: RecA P67E P68E (Escherichia coli) (UniProt P0A7G6); details: physiological ATP, lightly assembled filament, less density than wild type; 20 mM Tris-HCl pH 7.4, 10 mM Mg2+, 10 nM oligo, 0-3.0 uM RecA, 37 C 10 min; CE in 25 mM Tris, 192 mM glycine, 0.5 mM Ca2+, pH 8.3, room temperature; recombinant protein; label: 5'-TMR; single-stranded DNA
[4] = molecular target: RecA P67R P68R (Escherichia coli) (UniProt P0A7G6); details: physiological ATP, moderately assembled and saturated filaments; 20 mM Tris-HCl pH 7.4, 10 mM Mg2+, 10 nM oligo, 0-3.0 uM RecA, 37 C 10 min; CE in 25 mM Tris, 192 mM glycine, 0.5 mM Ca2+, pH 8.3, room temperature; recombinant protein; label: 5'-TMR; single-stranded DNA
[5] = molecular target: RecA P67Y P68Y (Escherichia coli) (UniProt P0A7G6); details: physiological ATP, moderately assembled and saturated filaments; 20 mM Tris-HCl pH 7.4, 10 mM Mg2+, 10 nM oligo, 0-3.0 uM RecA, 37 C 10 min; CE in 25 mM Tris, 192 mM glycine, 0.5 mM Ca2+, pH 8.3, room temperature; recombinant protein; label: 5'-TMR; single-stranded DNA
[6] = molecular target: RecA P67D P68D (Escherichia coli) (UniProt P0A7G6); details: physiological ATP, lightly assembled filament, less density than wild type; 20 mM Tris-HCl pH 7.4, 10 mM Mg2+, 10 nM oligo, 0-3.0 uM RecA, 37 C 10 min; CE in 25 mM Tris, 192 mM glycine, 0.5 mM Ca2+, pH 8.3, room temperature; recombinant protein; label: 5'-TMR; single-stranded DNA

Measured: binding result

TTTCCTACCTTAAGATCCTTCCAGTCTCCGCCGGCCAGTGTTACCCTTAGAGCTCATACCATTCGCCAATTTCTTCGCACGTT [TMR-ss83mer]
binds: all assays above

Construct, isoform or probe ends are uncertain for at least one entry. At least one verdict rests on a figure or table, not on a statement of the authors.
